Results from patent US10899707B2, “Methods for forming peroxyformic acid and uses thereof” (ECOLAB USA INC., priority 2014, dated 2021).
For at least one compound, name, drawing or mass did not settle the structure.

Tested on: acid producing bacteria (APBs)
Assay: Biocidal performance on treated produced water, bug bottles serial dilution
Format: cell-based
Settings: 0.5 ppm PFA, untreated E5 bacteria/mL
Procedure: Treatment of produced water with performic acid was evaluated using performic acid compositions containing a corrosion inhibitor. As shown in FIG. 28 (grey scale) the lighter color […] in the water, whereas the darker shading indicates no growth. Untreated has E5 bacteria/mL; 0.5 ppm PFA treated has E3 bacteria/mL. The bacterial bug bottles are specific in supporting growth of acid producing bacteria (APBs). Growth of APB is indicated by a color change from dark to light color (pink to yellow). 1 mL of initial inoculum was diluted 10 times in subsequent bottles. Therefore each bottle indicates a El bacteria/mL. Based on the results observed by growth/no growth of bacteria it can be concluded that PFA treatment results in at least a reduction of 2 log (equivalent of E2 bacteria/mL) bacteria.

`O=COO` [PFA, peroxyformic acid] was tested. Which “bacteria count after treatment” value did it give?
Its value is “E3 bacteria/mL”.
